This note sets out measurements from publication PMC4930625.

These are yes or no findings as the source states them, for the method shown. In cells and extracts the contact can be indirect. Binding calls can cover weak binding; strength is not graded here. Sequences can lack the tags named with a protein.

In experiment [1] the target is GST-FcaA3Z2-HA (domestic cat (Felis catus)). As to the kind of experiment: pull-down; GST, GST-FcaA3Z2-HA or GST-FcaA3Z3-HA on glutathione Sepharose beads, incubated overnight at 4 °C with lysate of HEK293T cells expressing FIV Vif-V5; mild lysis buffer (50 mM Tris pH 8, 10 % glycerol, 0.8 % NP-40, 150 mM NaCl); eluted with 25 mM reduced glutathione; immunoblot anti-V5 and anti-HA; only the target purified.

Experiment [2] has as its target GST-FcaA3Z3-HA (domestic cat (Felis catus)). The description is as above.

B1: FIV Vif-V5 (Vif of FIV-34TF10, domestic cat FIV, codon-optimized gene) (protein, UniProt P16089 1-251)
chain: MSEEDWQVSRRLFAVLQGGVNSAMLYISRLPPDEREKYKKDFKKRLFDTETGFIKRLRKAEGIKWSFHTRDYYIGYVREMVAGSTTSLSLRMYIYISNPLWHSQYRPGLKNFNKEWPFVNMWIKTGFMWDDIEKQNICIGGEVSPGWGPGMVGIAIKAFSCGERKIEATPVMIIRGEIDPKKWCGDCWNLMCLRNSPPKTLQRLAMLACGVPAKKWRGCCNQRFVSPYRTPADLEVIQSKPSWNLLWSGEL
For the molecule B1, the binding entry in experiment [1] and in experiment [2] was “binds” throughout.
